From paper PMC11277124
These are yes or no findings as the source states them, for the method shown.

Target: DDT1 (cytochrome P450 enzyme encoded by LOC_Os03g04680) (rice (Oryza sativa L.))
Assay: two-hybrid; DDT1 in pGBKT7 and SLR1 in pGADT7 co-transformed into yeast strain AH109; grown on -Leu/-Trp or -Leu/-Trp/-His/-Ade media for 4 days

B1: SLR1 (protein, UniProt Q7G7J6 1-625)
chain: MKREYQEAGGSSGGGSSADMGSCKDKVMAGAAGEEEDVDELLAALGYKVRSSDMADVAQKLEQLEMAMGMGGVSAPGAADDGFVSHLATDTVHYNPSDLSSWVESMLSELNAPLPPIPPAPPAARHASTSSTVTGGGGSGFFELPAAADSSSSTYALRPISLPVVATADPSAADSARDTKRMRTGGGSTSSSSSSSSSLGGGASRGSVVEAAPPATQGAAAANAPAVPVVVVDTQEAGIRLVHALLACAEAVQQENFAAAEALVKQIPTLAASQGGAMRKVAAYFGEALARRVYRFRPADSTLLDAAFADLLHAHFYESCPYLKFAHFTANQAILEAFAGCHRVHVVDFGIKQGMQWPALLQALALRPGGPPSFRLTGVGPPQPDETDALQQVGWKLAQFAHTIRVDFQYRGLVAATLADLEPFMLQPEGEADANEEPEVIAVNSVFELHRLLAQPGALEKVLGTVHAVRPRIVTVVEQEANHNSGSFLDRFTESLHYYSTMFDSLEGGSSGQAELSPPAAGGGGGTDQVMSEVYLGRQICNVVACEGAERTERHETLGQWRNRLGRAGFEPVHLGSNAYKQASTLLALFAGGDGYRVEEKEGCLTLGWHTRPLIATSAWRVAAA
Q: B1 was tested. Which binding did it give?
A: no binding
